Test results taken from the supplement of paper PMC6411743.
± gives the standard deviation of the averaged measurements. The list shows a part of the results, in another mix than the full data. Small differences around the control level are noise.

Amino acid sequences for entries named in this document (tags omitted). A change or cut given only in a name is not applied to a line headed by its entry.
UniProt Q8NI27: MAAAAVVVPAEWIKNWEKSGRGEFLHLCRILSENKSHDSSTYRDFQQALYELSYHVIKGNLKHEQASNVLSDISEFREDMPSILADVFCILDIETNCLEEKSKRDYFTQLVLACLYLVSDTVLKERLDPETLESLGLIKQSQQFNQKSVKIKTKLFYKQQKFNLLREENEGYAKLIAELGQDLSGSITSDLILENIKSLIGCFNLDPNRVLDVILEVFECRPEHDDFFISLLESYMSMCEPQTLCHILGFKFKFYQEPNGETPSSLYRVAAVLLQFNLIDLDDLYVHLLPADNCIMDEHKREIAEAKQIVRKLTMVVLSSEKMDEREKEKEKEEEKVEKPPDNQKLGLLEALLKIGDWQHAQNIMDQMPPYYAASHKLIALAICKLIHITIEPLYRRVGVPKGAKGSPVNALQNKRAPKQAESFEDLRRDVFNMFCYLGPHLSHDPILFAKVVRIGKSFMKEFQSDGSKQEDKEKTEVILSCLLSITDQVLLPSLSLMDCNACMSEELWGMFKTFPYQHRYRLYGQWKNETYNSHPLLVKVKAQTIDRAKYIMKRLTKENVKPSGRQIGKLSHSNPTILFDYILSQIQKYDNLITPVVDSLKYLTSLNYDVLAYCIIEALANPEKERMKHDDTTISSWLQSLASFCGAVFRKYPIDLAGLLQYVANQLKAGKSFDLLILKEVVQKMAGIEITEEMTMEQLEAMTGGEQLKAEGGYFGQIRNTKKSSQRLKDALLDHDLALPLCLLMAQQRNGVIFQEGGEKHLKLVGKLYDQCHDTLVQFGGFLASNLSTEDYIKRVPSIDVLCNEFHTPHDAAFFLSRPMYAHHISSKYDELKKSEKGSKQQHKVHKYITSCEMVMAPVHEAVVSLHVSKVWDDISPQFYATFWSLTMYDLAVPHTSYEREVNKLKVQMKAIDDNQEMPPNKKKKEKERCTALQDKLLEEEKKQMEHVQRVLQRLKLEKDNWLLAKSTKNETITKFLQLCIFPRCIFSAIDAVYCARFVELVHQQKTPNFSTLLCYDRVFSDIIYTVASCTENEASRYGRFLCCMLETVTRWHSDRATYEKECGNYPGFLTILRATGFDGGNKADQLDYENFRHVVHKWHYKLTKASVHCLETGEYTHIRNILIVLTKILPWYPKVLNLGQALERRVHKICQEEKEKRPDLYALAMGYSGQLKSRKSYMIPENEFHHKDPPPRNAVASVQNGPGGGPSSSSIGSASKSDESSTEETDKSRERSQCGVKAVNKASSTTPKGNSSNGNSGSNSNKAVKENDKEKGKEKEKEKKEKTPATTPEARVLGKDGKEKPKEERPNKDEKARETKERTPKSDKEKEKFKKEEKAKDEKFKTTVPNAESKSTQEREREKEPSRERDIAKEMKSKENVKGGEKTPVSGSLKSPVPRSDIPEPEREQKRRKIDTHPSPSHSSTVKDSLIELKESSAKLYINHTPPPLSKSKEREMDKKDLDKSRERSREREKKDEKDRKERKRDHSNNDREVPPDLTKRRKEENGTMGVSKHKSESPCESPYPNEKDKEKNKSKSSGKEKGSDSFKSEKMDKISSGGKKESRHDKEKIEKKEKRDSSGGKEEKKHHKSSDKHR
UniProt Q8WWK9: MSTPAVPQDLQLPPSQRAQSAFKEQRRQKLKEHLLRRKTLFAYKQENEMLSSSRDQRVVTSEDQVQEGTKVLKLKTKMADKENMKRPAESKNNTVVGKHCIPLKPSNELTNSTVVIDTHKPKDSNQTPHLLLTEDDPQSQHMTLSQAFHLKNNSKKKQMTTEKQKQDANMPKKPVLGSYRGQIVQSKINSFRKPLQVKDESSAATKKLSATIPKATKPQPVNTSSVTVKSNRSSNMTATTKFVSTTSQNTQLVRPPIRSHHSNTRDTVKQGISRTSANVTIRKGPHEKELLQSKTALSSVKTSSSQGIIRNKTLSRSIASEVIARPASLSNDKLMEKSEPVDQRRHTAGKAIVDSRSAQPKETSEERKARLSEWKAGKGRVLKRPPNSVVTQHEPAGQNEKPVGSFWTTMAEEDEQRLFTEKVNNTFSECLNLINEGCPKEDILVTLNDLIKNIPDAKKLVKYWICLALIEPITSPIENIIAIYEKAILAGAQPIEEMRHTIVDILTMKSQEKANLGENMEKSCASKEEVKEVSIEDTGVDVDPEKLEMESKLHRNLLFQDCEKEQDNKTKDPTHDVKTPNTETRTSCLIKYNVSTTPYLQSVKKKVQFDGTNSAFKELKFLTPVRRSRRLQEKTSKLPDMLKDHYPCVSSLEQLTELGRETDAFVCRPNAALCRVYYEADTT
UniProt Q8NEJ9: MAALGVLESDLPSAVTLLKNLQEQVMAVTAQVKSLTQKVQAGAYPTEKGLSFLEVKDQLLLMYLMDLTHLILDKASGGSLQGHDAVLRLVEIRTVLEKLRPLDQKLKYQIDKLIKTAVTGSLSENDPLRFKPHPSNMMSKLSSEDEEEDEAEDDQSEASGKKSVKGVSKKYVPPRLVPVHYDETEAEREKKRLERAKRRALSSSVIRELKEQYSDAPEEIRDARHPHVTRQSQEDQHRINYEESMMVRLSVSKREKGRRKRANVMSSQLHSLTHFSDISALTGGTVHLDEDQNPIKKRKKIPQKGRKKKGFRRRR
UniProt Q92572: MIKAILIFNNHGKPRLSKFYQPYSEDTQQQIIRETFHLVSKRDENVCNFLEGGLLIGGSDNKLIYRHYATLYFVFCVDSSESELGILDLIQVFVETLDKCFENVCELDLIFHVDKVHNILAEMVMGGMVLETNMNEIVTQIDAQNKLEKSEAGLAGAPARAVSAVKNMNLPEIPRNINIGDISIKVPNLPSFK
UniProt Q8WY91: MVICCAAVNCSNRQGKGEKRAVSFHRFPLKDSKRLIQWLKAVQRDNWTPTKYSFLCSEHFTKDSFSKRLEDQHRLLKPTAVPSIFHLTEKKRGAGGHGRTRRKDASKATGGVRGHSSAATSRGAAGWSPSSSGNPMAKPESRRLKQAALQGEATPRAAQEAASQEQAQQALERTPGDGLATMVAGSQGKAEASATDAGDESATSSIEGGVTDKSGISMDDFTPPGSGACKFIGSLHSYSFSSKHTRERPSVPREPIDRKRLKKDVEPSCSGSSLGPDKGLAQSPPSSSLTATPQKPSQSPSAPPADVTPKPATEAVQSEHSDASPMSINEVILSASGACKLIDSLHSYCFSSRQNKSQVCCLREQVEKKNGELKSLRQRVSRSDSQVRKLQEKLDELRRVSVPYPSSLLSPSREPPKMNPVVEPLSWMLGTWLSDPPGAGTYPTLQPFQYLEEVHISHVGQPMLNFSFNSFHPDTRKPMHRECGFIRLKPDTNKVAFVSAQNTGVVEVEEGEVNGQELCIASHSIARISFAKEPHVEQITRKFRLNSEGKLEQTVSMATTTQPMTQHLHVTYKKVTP
UniProt Q8WVJ2: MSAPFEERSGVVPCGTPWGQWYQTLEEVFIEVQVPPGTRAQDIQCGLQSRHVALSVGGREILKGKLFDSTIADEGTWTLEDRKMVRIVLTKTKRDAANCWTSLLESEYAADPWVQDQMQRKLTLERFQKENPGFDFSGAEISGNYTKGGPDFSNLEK
UniProt Q8NDX1: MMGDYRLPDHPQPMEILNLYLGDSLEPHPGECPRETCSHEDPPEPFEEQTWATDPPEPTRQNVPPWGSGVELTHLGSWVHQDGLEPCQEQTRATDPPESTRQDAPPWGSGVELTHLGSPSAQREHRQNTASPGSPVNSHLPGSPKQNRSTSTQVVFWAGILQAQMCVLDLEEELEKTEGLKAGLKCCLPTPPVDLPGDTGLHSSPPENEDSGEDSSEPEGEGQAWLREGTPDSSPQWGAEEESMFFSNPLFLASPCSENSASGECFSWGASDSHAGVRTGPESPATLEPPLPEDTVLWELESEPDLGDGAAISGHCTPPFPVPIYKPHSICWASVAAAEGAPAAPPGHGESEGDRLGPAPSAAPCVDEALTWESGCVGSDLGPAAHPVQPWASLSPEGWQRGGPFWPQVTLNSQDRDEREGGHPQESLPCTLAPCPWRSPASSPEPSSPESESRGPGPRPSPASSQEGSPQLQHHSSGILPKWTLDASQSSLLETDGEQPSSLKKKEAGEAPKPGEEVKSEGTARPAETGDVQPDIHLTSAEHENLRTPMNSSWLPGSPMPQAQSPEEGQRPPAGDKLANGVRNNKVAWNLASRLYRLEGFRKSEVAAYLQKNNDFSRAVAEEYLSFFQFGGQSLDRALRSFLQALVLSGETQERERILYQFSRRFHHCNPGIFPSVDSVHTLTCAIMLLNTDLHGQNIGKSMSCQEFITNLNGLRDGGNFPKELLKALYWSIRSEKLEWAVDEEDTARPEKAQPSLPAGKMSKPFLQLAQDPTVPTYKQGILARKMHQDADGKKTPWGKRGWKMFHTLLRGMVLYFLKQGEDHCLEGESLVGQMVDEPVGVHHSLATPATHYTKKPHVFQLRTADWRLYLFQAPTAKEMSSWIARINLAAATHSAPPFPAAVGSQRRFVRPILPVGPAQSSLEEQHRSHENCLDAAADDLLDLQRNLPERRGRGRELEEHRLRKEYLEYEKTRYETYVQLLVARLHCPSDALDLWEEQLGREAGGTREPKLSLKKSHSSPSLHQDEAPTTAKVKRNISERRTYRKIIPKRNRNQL
UniProt Q8NHH9: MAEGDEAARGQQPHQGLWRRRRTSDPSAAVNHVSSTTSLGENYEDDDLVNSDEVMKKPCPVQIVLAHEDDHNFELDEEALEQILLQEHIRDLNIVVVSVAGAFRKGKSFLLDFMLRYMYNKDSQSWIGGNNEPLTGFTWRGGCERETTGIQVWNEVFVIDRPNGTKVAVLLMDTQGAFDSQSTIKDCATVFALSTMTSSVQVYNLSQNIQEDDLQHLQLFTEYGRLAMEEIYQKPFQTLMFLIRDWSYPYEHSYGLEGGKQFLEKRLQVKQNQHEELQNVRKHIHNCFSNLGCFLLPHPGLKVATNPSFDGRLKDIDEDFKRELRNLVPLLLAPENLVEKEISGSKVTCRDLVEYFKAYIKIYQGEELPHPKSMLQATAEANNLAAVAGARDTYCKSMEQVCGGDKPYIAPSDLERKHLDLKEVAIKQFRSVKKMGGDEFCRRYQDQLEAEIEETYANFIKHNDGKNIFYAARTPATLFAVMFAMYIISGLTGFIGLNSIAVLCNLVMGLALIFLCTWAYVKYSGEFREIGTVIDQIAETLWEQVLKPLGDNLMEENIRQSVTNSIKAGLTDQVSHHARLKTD
UniProt Q8WUW1: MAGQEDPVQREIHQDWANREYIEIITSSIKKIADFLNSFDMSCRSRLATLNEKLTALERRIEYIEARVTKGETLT
UniProt Q8TCY9: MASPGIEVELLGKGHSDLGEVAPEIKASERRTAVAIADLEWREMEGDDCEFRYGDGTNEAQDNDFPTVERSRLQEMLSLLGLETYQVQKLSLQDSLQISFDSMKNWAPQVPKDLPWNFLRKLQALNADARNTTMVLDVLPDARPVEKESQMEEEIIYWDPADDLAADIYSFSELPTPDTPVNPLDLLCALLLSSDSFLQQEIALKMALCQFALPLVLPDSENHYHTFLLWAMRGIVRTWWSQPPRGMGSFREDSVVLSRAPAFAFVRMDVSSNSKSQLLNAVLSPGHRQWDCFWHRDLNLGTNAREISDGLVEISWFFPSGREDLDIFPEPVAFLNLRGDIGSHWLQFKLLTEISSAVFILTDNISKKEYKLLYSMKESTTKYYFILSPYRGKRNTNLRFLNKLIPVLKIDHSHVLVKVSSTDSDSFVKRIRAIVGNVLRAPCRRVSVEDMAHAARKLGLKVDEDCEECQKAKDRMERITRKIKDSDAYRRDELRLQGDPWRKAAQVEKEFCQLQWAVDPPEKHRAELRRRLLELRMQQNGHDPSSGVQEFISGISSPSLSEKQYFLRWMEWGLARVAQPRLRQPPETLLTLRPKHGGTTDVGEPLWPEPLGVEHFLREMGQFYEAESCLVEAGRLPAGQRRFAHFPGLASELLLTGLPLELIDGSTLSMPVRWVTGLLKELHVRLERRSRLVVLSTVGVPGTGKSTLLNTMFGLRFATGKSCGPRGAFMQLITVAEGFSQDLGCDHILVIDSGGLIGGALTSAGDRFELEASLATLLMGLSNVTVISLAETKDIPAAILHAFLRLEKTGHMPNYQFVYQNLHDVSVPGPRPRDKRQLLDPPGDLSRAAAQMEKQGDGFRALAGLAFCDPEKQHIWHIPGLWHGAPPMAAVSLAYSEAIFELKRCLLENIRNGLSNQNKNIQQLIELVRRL
UniProt Q8WUF8: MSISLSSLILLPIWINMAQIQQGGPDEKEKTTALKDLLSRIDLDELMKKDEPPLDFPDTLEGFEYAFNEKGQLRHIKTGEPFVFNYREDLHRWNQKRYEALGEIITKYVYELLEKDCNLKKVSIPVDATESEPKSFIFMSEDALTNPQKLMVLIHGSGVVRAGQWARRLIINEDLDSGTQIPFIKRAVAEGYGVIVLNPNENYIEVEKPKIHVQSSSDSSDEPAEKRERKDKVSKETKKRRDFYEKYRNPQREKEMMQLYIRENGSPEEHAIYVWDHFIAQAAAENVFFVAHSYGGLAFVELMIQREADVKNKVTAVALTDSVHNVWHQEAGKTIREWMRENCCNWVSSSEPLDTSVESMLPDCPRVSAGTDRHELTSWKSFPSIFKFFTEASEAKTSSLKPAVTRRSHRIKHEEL

Compound: Nc1ncnc2c1ncn2[C@@H]1O[C@H](COP(=O)(O)OP(=O)(O)NP(=O)(O)O)[C@@H](O)[C@H]1O [adenylyl imidodiphosphate]
Assay: NP40-soluble protein abundance relative to vehicle (solubility fold change) (ratio); higher = more soluble protein in presence of AMP-PNP
Conditions: concentration: 0.1mM
Method in brief: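 Across three independent experiments, values are fold changes against the detergent-processed vehicle for each replicate, based on vsn-normalised intensities. The samples were Jurkat crude lysate treated with eight concentrations (0.1 to 10 mM) for 10 min at room temperature and then 3 min at 37 °C. Lysate was solubilised with 0.8% NP40 and benzonase, ultracentrifuged, and the supernatant analysed by TMT-labelled LC-MS/MS.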

Target	NP40-soluble protein abundance
UniProt Q92793 and related entries	1.05 ± 0.059
DTX3L (UniProt Q8TDB6)	1.01 ± 0.011
UniProt Q8TEH3 and related entries	1.03 ± 0.014
TOPBP1 (UniProt Q92547)	0.99 ± 0.012
THOC2 (UniProt Q8NI27)	1.2 ± 0.054
MITD1 (UniProt Q8WV92)	1.01 ± 0.012
UniProt Q8TDR0 and related entries	1.03 ± 0.038
UniProt Q8WWK9 and related entries	0.946 ± 0.019
UniProt Q8NI08 and related entries	0.94 ± 0.011

Same assay, conditions: concentration: 0.5mM

Target	NP40-soluble protein abundance
UniProt Q8NEJ9 and related entries	0.9915 ± 0.0094
UniProt Q8NDI1-2|Q8NDI1-3	0.993 ± 0.027
STT3B (UniProt Q8TCJ2)	1.01 ± 0.051
UniProt Q8TEQ8 and related entries	0.992 ± 0.028
UniProt Q92572	0.97 ± 0.023
THAP4 (UniProt Q8WY91)	0.9732 ± 0.0027
GATAD2B (UniProt Q8WXI9)	1.01 ± 0.038
NUDCD2 (UniProt Q8WVJ2)	0.98 ± 0.029
PXDN (UniProt Q92626)	1 ± 0.051
UniProt Q8TCA0 and related entries	0.987 ± 0.035
UniProt Q8NDX1 and related entries	1.02 ± 0.063
UniProt Q8NHH9 and related entries	1 ± 0.018
ANKS1A (UniProt Q92625)	0.983 ± 0.025
UniProt Q8NG08 and related entries	1.01 ± 0.035
PIEZO1 (UniProt Q92508)	0.992 ± 0.02
MRPS31 (UniProt Q92665)	1.02 ± 0.043
UniProt Q8WYN0 and related entries	1.03 ± 0.021
UniProt Q8WUW1 and related entries	0.965 ± 0.072
UniProt Q8TCY9	0.999 ± 0.018

Target	NP40-soluble protein abundance
HJURP (UniProt Q8NCD3)	0.975 ± 0.041
GALNT6 (UniProt Q8NCL4)	1.03 ± 0.02
UniProt Q8TF01	1.07 ± 0.054
UniProt Q8NHM5 and related entries	0.969 ± 0.032
PIBF1 (UniProt Q8WXW3)	0.984 ± 0.061
JADE3 (UniProt Q92613)	1.04 ± 0.034
UniProt Q8WVE0	0.961 ± 0.013
WDR48 (UniProt Q8TAF3)	1.01 ± 0.05
UniProt Q8WUF8 and related entries	1.01 ± 0.021
UniProt Q92793 and related entries	1.04 ± 0.028
DTX3L (UniProt Q8TDB6)	0.985 ± 0.012
UniProt Q8TEH3 and related entries	1.02 ± 0.013
TOPBP1 (UniProt Q92547)	0.978 ± 0.03
THOC2 (UniProt Q8NI27)	1.25 ± 0.13
MITD1 (UniProt Q8WV92)	1.035 ± 0.004
UniProt Q8TDR0 and related entries	1.01 ± 0.034
UniProt Q8WWK9 and related entries	0.967 ± 0.021
UniProt Q8NI08 and related entries	0.953 ± 0.025
